Results taken from paper PMC5349888, “Thyroid transcription factor FOXE1 interacts with ETS factor ELK1 to co-regulate TERT”.
No signal at the amounts used counts as a negative. For some assays here: Protein sequences can lack the tags named with them.

What was measured:
[1] = system: FOXE1 A65V-Flag + ELK1-HA; experiment: EMSA; settings: ternary complex: A65V abrogates FOXE1 interaction with TERT-bound ELK1, ELK1 itself binds; EMSA: 1 ug protein, 150 mM KCl, 50 ng/uL poly(dI-dC), 10% glycerol, 10 mM Tris pH 7.5, room temperature 30 min; 6% polyacrylamide gel; recombinant protein; protein details: 3xFlag,HA (pCMV-HA-N); label: 5' biotin
FOXE1-Flag (human) = biological target: T1, FOXE1-Flag (human) (UniProt O00358); experiment: EMSA; settings: FOXE1 alone, without ELK1; EMSA: 1 ug protein, 150 mM KCl, 50 ng/uL poly(dI-dC), 10% glycerol, 10 mM Tris pH 7.5, room temperature 30 min; 6% polyacrylamide …; recombinant protein; residues 1-373; protein details: 3xFlag (p3XFlag-CMV-7.1); label: 5' biotin
T1 sequence (looked up): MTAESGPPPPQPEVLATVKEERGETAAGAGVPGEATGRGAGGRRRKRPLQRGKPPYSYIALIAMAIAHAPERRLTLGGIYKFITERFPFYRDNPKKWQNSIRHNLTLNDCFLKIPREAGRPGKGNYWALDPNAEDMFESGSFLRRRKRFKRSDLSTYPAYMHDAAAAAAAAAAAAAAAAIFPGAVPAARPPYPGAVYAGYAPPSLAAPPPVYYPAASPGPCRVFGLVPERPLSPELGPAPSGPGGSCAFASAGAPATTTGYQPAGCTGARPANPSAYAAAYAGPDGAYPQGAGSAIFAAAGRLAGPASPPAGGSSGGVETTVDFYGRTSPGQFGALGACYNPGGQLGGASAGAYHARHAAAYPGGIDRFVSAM

## CCCCGCCCCGTCCCGACCCCTCCCGGGTCCCCGGCCCAGCCCCCTCCGGGCCCTCCCAGCCCCTCCCCTTCCTTTCCGCGGCCCC (double strand) [TERT promoter probe]
[1]
  binding result: no binding
FOXE1-Flag (human)
  binding result: no binding
